# Measured values as given in publication PMC5764988.
# Legend:
# [1] = molecular target: T1, MagD, the Type II alpha-2-macroglobulin from Pseudomonas aeruginosa (Pseudomonas aeruginosa) (UniProt Q9HVT2); assay: SAXS; LNLS SAXS1 beamline, 10 °C, 2 to 6 mg/mL in 25 mM HEPES pH 7.5, 100 mM NaCl, 5% glycerol, 1 mM DTT; samples purified by SEC beforehand; Rg and Dmax of the complexes compared with MagD; both purified
# T1 sequence: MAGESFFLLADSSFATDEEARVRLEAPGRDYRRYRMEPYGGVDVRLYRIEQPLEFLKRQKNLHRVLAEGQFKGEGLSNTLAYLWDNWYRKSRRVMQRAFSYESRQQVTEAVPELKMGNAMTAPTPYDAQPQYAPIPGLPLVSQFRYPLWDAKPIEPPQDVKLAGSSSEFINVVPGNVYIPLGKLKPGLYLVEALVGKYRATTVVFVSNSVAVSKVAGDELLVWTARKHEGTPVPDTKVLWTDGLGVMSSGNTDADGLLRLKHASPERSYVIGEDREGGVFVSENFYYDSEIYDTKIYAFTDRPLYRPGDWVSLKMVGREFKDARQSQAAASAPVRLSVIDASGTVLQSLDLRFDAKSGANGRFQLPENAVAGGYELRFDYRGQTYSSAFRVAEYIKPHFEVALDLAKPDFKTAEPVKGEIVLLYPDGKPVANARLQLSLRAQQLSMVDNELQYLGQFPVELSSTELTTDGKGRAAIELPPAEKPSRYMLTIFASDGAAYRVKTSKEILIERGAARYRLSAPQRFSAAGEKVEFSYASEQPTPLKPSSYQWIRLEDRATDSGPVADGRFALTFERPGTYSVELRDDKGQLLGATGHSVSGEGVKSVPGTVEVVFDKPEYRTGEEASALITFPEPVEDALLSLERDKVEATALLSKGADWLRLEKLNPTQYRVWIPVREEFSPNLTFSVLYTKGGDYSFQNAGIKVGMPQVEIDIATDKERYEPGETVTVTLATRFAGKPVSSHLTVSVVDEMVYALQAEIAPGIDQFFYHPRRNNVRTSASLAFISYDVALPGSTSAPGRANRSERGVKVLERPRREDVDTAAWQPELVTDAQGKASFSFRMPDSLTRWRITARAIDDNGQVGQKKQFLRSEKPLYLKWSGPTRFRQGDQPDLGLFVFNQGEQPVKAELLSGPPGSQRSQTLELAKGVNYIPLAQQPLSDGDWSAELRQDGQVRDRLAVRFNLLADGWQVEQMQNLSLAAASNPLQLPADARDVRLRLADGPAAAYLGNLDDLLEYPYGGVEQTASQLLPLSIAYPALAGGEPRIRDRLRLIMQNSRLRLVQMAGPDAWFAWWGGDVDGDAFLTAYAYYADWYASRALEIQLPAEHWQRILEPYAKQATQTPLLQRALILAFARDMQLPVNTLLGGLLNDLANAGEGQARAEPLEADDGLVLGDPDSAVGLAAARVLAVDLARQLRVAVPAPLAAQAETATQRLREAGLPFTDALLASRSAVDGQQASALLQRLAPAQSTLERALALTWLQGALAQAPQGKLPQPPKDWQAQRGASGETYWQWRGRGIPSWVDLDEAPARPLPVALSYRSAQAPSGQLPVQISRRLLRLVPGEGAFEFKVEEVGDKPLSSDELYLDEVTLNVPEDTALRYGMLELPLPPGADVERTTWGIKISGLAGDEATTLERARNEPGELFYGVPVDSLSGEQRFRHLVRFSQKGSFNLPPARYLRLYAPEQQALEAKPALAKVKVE
# [2] = molecular target: T1, MagD, the Type II alpha-2-macroglobulin from Pseudomonas aeruginosa (Pseudomonas aeruginosa); assay: SEC; MagD co-expressed with one other Mag protein in E. coli BL21 Star; co-purification by Ni-NTA and gel filtration (Superdex S200, 25 mM HEPES pH 7.5, 100 mM NaCl, 4 °C); both chains His6-tagged
Substance,binding [1],binding [2]
MagF (Pseudomonas aeruginosa),binds,binds
MagE (Pseudomonas aeruginosa),,no binding
MagA (Pseudomonas aeruginosa),binds,binds

# These are yes or no findings as the source states them, for the method shown. A result given as binding can be weak or reduced; the word gives no strength. For some assays here: Binding seen in cells or lysates may run through a third protein.
